For 1 molecule, binding results are on record in paper doi:10.1101/2022.08.05.502941.

The chains behind the UniProt entries cited, without tags or fusion partners.
UniProt P60880: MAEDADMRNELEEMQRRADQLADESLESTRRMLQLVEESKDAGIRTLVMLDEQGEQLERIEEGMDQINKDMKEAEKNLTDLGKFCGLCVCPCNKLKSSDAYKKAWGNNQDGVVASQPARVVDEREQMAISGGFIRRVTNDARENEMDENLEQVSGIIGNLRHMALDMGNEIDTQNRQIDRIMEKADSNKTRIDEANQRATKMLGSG

The test has as its target Flag-SNAP25 (human (cDNA library of HeLa cells)) (UniProt P60880). Description: affinity purification with mass spectrometry.

These are yes or no findings as the source states them, for the method shown. Binding seen in cells or lysates may run through a third protein. A yes stands for co-enrichment or nearness to the bait. Other partners may have been found.

B1: Snapin (protein, UniProt O95295 1-136)
chain: MAGAGSAAVSGAGTPVAGPTGRDLFAEGLLEFLRPAVQQLDSHVHAVRESQVELREQIDNLATELCRINEDQKVALDLDPYVKKLLNARRRVVLVNNILQNAQERLRRLNHSVAKETARRRAMLDSGIYPPGSPGK
Regarding B1, the binding result was “binds”.
